The results in this text go back to article PMC5608947.

These are yes or no findings as the source states them, for the method shown. In cells and extracts the contact can be indirect. Some entries that bind do so weakly or less than the wild type. Where a sequence is shown, tags or fusion partners need not be part of it.

For the assay, the target named is CtBP1 (C-terminal binding protein 1), mouse, full length, HA-tagged and Flag-tagged copies (mouse) (UniProt O88712). Kind of assay: co-IP; competition: 50 µM synthetic CtBP peptide added to the COS7 lysate holding CtBP1-HA and CtBP1-Flag, with 10 mM lactate + 10 µM NADH, 37 °C, 20 min; IP with anti-Flag, blot with anti-HA; only the binder purified.

In the case of GRKKRRQRRRCVEETADSTLCHILNLYRRTTWLHQALREG [CtBP peptide (Tat sequence fused to amino acids 114-142 of the long form of mouse CtBP1)], the binding result is reported as “binds”.
